Test results reported in US7951950B2, “PGD2 receptor antagonists for the treatment of inflammatory diseases” (Millennium Pharmaceuticals, Inc., priority 2005, dated 2011).
Some entries share one result that the patent states for a list of compounds.

Target: T1, cloned human CRTH2 receptor (Homo sapiens, UniProt Q9Y5Y4)
T1 construct: purchased Biosignal; host or cells: HEK-293 cells stably expressing human CRTH2 and G alpha 16
T1 sequence (Q9Y5Y4 1-395): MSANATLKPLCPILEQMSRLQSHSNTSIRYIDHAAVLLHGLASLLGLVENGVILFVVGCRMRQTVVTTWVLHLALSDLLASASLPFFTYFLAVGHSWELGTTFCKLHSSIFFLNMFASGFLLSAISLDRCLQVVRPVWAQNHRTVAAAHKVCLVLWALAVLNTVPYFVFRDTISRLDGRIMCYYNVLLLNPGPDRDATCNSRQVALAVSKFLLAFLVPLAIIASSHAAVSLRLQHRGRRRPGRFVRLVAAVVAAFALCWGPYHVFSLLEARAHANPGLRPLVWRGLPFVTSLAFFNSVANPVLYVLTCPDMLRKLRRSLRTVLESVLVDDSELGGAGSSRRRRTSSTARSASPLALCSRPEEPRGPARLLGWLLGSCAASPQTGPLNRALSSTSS
Assay: radioligand membrane binding assay: inhibition of [3H] PGD2 binding, Scintillation Proximity Assay
Conditions: [3H] PGD2 binding to membranes of HEK-293 cells expressing human CRTH2; SPA
Protocol: This radioligand membrane binding assay evaluates the ability of compounds to inhibit [^3H] Prostaglandin D2 (PGD2) binding to the cloned human CRTH2 receptor stably expressed in HEK-293 cells (expressing human CRTh2 receptor and α subunit or the heterotrimeric G protein 16 were prepared by Biosignal Company) using Scintillation Proximity Assay.
A binding buffer containing 50 mM Tris-HCl (pH 7.5), 5 mM MgCl2 and 1 mM EDTA is prepared immediately prior to performing the assay. A bead/membrane solution at twice the final assay concentration comprising membranes (membranes bought from Biosignal) from the HEK-293 cells cloned to express CRTH2 receptor bound to and [^3H] PGD2 at two times the final assay concentration are prepared and stored on ice before adding to wells. Cold PGD2 at twenty times the final assay concentration is prepared and stored on ice before adding to wells defining non-specific binding (NSB) coming plates #3653 are used for this assay.
10 mM stock concentrations of compounds in 100% DMSO are prepared and stored at room temperature. A 10 point concentration response curve is then constructed for each compound, starting at 10 μM (final assay concentration). The compounds are prepared at 40 times final assay concentrations with nine consequent-3-fold dilutions.
0.1 μl of each concentration of compound are added to the appropriate well of the 384 plate and 2 μl of cold PGD2 is added into the wells defining NSB. 20 μl of [3H] PGD2 and then 20 μl of 2× of bead/membrane solution are then added to each well.
The plates are allowed to incubate at room temperature for approximately 2 hours and then counted on Packard Topcount using SPA tritium protocol for 1 minute/well.
The percent inhibition of PGD2 binding (PGD2 used at the KD value or lower) to the HEK-293 cell membranes is determined, the assay is always run as duplicate for n=1 for a total of n=2 and shown below.

Ki, < 10 µM:
CCN(C(=O)[C@H]1C[C@H](C)N(C(=O)c2cc3ccccc3s2)c2ccccc21)c1ccc(Cl)cc1 (racemic) [Compound 42, (±)-trans-1-(Benzo[b]thiophene-2-carbonyl)-2-methyl-1,2,3,4-tetrahydro-quinoline-4-carboxylic acid (4-chloro-phenyl)-ethyl-amide]
CCN(C(=O)[C@H]1C[C@H](C)N(C(=O)c2ccc(OCC(=O)O)cc2)c2ccccc21)c1ccc(Cl)cc1 (racemic) [Compound 45, (±)-trans-4-(4-{4-[(4-Chloro-phenyl)-ethyl-carbamoyl]-2-methyl-3,4-dihydro-2H-quinoline-1-carbonyl}-phenoxy)-acetic acid]
CCN(C(=O)[C@H]1C[C@H](C)N(C(=O)c2ccc(OC)cc2)c2ccccc21)c1ccc(C(N)=O)cc1 (racemic) [Compound 47, (±)-trans-1-(4-Methoxy-benzoyl)-2-methyl-1,2,3,4-tetrahydro-quinoline-4-carboxylic acid (4-carbamoyl-phenyl)-ethyl-amide]
CCN(C(=O)[C@H]1C[C@H](C)N(C(=O)c2ccc(OC)cc2)c2ccccc21)c1cccc(Cl)c1 (racemic) [Compound 48, (±)-trans-1-(4-Methoxy-benzoyl)-2-methyl-1,2,3,4-tetrahydro-quinoline-4-carboxylic acid (3-chloro-phenyl)-ethyl-amide]
CCN(C(=O)[C@H]1C[C@H](C)N(C(=O)c2ccc(OC)cc2)c2ccccc21)c1ccccc1 (racemic) [Compound 51, (±)-trans-1-(4-Methoxy-benzoyl)-2-methyl-1,2,3,4-tetrahydro-quinoline-4-carboxylic acid ethyl-phenyl-amide]
CCN(C(=O)[C@H]1C[C@H](C)N(C(=O)c2ccc(OCCC(C)(C)C(=O)O)cc2)c2ccccc21)c1ccc(Cl)cc1 (racemic) [Compound 55, (±)-trans-4-(4-{4-[(4-Chloro-phenyl)-ethyl-carbamoyl]-2-methyl-3,4-dihydro-2H-quinoline-1-carbonyl}-phenoxy)-2,2-dimethyl-butyric acid]
CCCN(C(=O)[C@H]1C[C@H](C)N(C(=O)c2ccc(OC)cc2)c2ccccc21)c1ccc(Cl)cc1 (racemic) [Compound 56, (±)-trans-1-(4-Methoxy-benzoyl)-2-methyl-1,2,3,4-tetrahydro-quinoline-4-carboxylic acid (4-chloro-phenyl)-propyl-amide]
COc1ccc(C(=O)N2c3ccccc3[C@@H](C(=O)N(C)c3ccc(Cl)cc3)C[C@@H]2C)cc1 (racemic) [Compound 58, (±)-trans-1-(4-Methoxy-benzoyl)-2-methyl-1,2,3,4-tetrahydro-quinoline-4-carboxylic acid (4-chloro-phenyl)-methyl-amide]
CCN(C(=O)[C@H]1C[C@H](C)N(C(=O)c2ccc(OC)c(F)c2)c2ccccc21)c1ccc(Cl)cc1 (racemic) [Compound 62, (±)-trans-1-(3-Fluoro-4-methoxy-benzoyl)-2-methyl-1,2,3,4-tetrahydro-quinoline-4-carboxylic acid (4-chloro-phenyl)-ethyl-amide]
CCN(C(=O)[C@H]1C[C@H](C)N(C(=O)c2ccncc2)c2ccccc21)c1ccc(Cl)cc1 (racemic) [Compound 63, (±)-trans-2-Methyl-1-(pyridine-4-carbonyl)-1,2,3,4-tetrahydro-quinoline-4-carboxylic acid (4-chloro-phenyl)-ethyl-amide]
CCN(C(=O)[C@H]1C[C@H](C)N(C(=O)c2ccc(OC)cc2)c2ccccc21)c1ccc(C#N)cc1 (racemic) [Compound 64, (±)-trans-1-(4-Methoxy-benzoyl)-2-methyl-1,2,3,4-tetrahydro-quinoline-4-carboxylic acid (4-cyano-phenyl)-ethyl-amide]
CCN(C(=O)[C@H]1C[C@H](C)N(C(=O)c2ccc(OC)cc2)c2ccccc21)c1ccc(OC)cc1 (racemic) [Compound 65, (±)-trans-1-(4-Methoxy-benzoyl)-2-methyl-1,2,3,4-tetrahydro-quinoline-4-carboxylic acid ethyl-(4-methoxy-phenyl)-amide]
CCN(C(=O)[C@H]1C[C@H](C)N(C(=O)c2ccc(OC)cc2)c2ccccc21)c1ccc(C)c(C)c1 (racemic) [Compound 67, (±)-trans-1-(4-Methoxy-benzoyl)-2-methyl-1,2,3,4-tetrahydro-quinoline-4-carboxylic acid (3,4-dimethyl-phenyl)-ethyl-amide]
CCN(C(=O)[C@H]1C[C@H](C)N(C(=O)c2ccc(OC)cc2)c2ccccc21)c1ccc(C)cc1 (racemic) [Compound 70, (±)-trans-1-(4-Methoxy-benzoyl)-2-methyl-1,2,3,4-tetrahydro-quinoline-4-carboxylic acid ethyl-p-tolyl-amide]
CCN(C(=O)[C@H]1C[C@H](C)N(C(=O)c2ccc(OC)cc2)c2ccccc21)c1ccc(F)cc1 (racemic) [Compound 72, (±)-trans-1-(4-Methoxy-benzoyl)-2-methyl-1,2,3,4-tetrahydro-quinoline-4-carboxylic acid ethyl-(4-fluoro-phenyl)-amide]
CCN(C(=O)[C@H]1C[C@H](C)N(C(=O)c2ccc(OCCC(C)(C)C(N)=O)cc2)c2ccccc21)c1ccc(Cl)cc1 (racemic) [Compound 75, (±)-trans-1-[4-(3-carbamoyl-3-methyl-butoxy)-benzoyl]-2-methyl-1,2,3,4-tetrahydro-quinoline-4-carboxylic acid (4-chloro-phenyl)-ethyl-amide]
COc1ccc(C(=O)N2c3ccccc3[C@@H](C(=O)N(Cc3ccccc3)c3ccccc3)C[C@@H]2C)cc1 (racemic) [Compound 77, (±)-trans-1-(4-Methoxy-benzoyl)-2-methyl-1,2,3,4-tetrahydro-quinoline-4-carboxylic acid benzyl-phenyl-amide]
CCN(C(=O)[C@H]1C[C@H](C)N(C(=O)c2ccc(F)cc2)c2ccccc21)c1ccc(Cl)cc1 (racemic) [Compound 78, (±)-trans-1-(4-Fluoro-benzoyl)-2-methyl-1,2,3,4-tetrahydro-quinoline-4-carboxylic acid (4-chloro-phenyl)-ethyl-amide]
CCN(C(=O)[C@H]1C[C@H](C)N(C(=O)C2CC2)c2ccccc21)c1ccc(Cl)cc1 (racemic) [Compound 82, (±)-trans-N-(4-Chlorophenyl)-1-(cyclopropylcarbonyl)-N-ethyl-2-methyl-1,2,3,4-tetrahydroquinoline-4-carboxamide]
CCN(C(=O)[C@H]1C[C@H](C)N(C(=O)c2ccc(OC)cc2)c2ccccc21)C1CC1 (racemic) [Compound 83, (±)-trans-N-Cyclopropyl-N-ethyl-1-(4-methoxybenzoyl)-2-methyl-1,2,3,4-tetrahydroquinoline-4-carboxamide]
CCN(C(=O)[C@H]1C[C@H](C)N(C(=O)c2ccc(OCCC(F)(F)C(=O)O)cc2)c2ccccc21)c1ccc(Cl)cc1 (racemic) [Compound 84, (±)-trans-4-(4-{[4-{[(4-Chlorophenyl)(ethyl)amino]carbonyl}-2-methyl-3,4-dihydroquinolin-1(2H)-yl]carbonyl}phenoxy)-2,2-difluorobutanoic acid]
